Source: doi:10.1101/2024.11.14.623549 (bioRxiv, 2024)
These are yes or no findings as the source states them, for the method shown. Some binding calls cover weakened binding; strength is not graded here. For part of these data: Where a sequence is shown, tags or fusion partners need not be part of it. Each block holds one molecule with its values, some of them ahead of it.

B1: NusA conjugated to CLC (NusA-CLC) (natural protein, Saccharomyces cerevisiae, UniProt P17891 1-233, looked up)
chain: MSEKFPPLEDQNIDFTPNDKKDDDTDFLKREAEILGDEFKTEQDDILETEASPAKDDDEIRDFEEQFPDINSANGAVSSDQNGSATVSSGNDNGEADDDFSTFEGANQSTESVKEDRSEVVDQWKQRRAVEIHEKDLKDEELKKELQDEAIKHIDDFYDSYNKKKEQQLEDAAKEAEAFLKKRDEFFGQDNTTWDRALQLINQDDADIIGGRDRSKLKEILLRLKGNAKAPGA
B2: Sla2ccRTH (Sla2 residues 351-968) (domain or fragment, Saccharomyces cerevisiae, UniProt P33338 351-968, looked up)
chain: ATAQMQPDFWANQQAQFANEQNRLEQERVQQLQQQQAQQELFQQQLQKAQQDMMNMQLQQQNQHQNDLIALTNQYEKDQALLQQYDQRVQQLESEITTMDSTASKQLANKDEQLTALQDQLDVWERKYESLAKLYSQLRQEHLNLLPRFKKLQLKVNSAQESIQKKEQLEHKLKQKDLQMAELVKDRDRARLELERSINNAEADSAAATAAAETMTQDKMNPILDAILESGINTIQESVYNLDSPLSWSGPLTPPTFLLSLLESTSENATEFATSFNNLIVDGLAHGDQTEVIHCVSDFSTSMATLVTNSKAYAVTTLPQEQSDQILTLVKRCAREAQYFFEDLMSENLNQVGDEEKTDIVINANVDMQEKLQELSLAIEPLLNIQSVKSNKETNPHSELVATADKIVKSSEHLRVDVPKPLLSLALMIIDAVVALVKAAIQCQNEIATTTSIPLNQFYLKNSRWTEGLISAAKAVAGATNVLITTASKLITSEDNENTSPEQFIVASKEVAASTIQLVAASRVKTSIHSKAQDKLEHCSKDVTDACRSLGNHVMGMIEDDHSTSQQQQPLDFTSEHTLKTAEMEQQVEILKLEQSLSNARKRLGEIRRHAYYNQDDD

Columns and labels:
[1] = target: B2; test: mass photometry
[2] = target: NusA conjugated to CLC (NusA-CLC) (Saccharomyces cerevisiae) (UniProt P17891); test: mass photometry
[3] = target: B2; test: cryo-EM structure

binding [1]: no binding (tested: 50 nM)
Molecule: NusA (from UniProt P0AFF6 1-495)

Molecule: B1
binding [2]: no binding (tested: 50 nM)

Molecule: B2
binding [3]: binds
